Results are given in words; binding and its absence hold for the method and conditions named. In cells and extracts the contact can be indirect. Some binding calls cover weakened binding; strength is not graded here.
Biological target: HUWE1 (mouse (endogenous in 32Dcl3)) (UniProt Q7TMY8)
Experiment: co-IP

By UniProt entry, the sequences of proteins in these tests, tags left out.
UniProt Q7TMY8: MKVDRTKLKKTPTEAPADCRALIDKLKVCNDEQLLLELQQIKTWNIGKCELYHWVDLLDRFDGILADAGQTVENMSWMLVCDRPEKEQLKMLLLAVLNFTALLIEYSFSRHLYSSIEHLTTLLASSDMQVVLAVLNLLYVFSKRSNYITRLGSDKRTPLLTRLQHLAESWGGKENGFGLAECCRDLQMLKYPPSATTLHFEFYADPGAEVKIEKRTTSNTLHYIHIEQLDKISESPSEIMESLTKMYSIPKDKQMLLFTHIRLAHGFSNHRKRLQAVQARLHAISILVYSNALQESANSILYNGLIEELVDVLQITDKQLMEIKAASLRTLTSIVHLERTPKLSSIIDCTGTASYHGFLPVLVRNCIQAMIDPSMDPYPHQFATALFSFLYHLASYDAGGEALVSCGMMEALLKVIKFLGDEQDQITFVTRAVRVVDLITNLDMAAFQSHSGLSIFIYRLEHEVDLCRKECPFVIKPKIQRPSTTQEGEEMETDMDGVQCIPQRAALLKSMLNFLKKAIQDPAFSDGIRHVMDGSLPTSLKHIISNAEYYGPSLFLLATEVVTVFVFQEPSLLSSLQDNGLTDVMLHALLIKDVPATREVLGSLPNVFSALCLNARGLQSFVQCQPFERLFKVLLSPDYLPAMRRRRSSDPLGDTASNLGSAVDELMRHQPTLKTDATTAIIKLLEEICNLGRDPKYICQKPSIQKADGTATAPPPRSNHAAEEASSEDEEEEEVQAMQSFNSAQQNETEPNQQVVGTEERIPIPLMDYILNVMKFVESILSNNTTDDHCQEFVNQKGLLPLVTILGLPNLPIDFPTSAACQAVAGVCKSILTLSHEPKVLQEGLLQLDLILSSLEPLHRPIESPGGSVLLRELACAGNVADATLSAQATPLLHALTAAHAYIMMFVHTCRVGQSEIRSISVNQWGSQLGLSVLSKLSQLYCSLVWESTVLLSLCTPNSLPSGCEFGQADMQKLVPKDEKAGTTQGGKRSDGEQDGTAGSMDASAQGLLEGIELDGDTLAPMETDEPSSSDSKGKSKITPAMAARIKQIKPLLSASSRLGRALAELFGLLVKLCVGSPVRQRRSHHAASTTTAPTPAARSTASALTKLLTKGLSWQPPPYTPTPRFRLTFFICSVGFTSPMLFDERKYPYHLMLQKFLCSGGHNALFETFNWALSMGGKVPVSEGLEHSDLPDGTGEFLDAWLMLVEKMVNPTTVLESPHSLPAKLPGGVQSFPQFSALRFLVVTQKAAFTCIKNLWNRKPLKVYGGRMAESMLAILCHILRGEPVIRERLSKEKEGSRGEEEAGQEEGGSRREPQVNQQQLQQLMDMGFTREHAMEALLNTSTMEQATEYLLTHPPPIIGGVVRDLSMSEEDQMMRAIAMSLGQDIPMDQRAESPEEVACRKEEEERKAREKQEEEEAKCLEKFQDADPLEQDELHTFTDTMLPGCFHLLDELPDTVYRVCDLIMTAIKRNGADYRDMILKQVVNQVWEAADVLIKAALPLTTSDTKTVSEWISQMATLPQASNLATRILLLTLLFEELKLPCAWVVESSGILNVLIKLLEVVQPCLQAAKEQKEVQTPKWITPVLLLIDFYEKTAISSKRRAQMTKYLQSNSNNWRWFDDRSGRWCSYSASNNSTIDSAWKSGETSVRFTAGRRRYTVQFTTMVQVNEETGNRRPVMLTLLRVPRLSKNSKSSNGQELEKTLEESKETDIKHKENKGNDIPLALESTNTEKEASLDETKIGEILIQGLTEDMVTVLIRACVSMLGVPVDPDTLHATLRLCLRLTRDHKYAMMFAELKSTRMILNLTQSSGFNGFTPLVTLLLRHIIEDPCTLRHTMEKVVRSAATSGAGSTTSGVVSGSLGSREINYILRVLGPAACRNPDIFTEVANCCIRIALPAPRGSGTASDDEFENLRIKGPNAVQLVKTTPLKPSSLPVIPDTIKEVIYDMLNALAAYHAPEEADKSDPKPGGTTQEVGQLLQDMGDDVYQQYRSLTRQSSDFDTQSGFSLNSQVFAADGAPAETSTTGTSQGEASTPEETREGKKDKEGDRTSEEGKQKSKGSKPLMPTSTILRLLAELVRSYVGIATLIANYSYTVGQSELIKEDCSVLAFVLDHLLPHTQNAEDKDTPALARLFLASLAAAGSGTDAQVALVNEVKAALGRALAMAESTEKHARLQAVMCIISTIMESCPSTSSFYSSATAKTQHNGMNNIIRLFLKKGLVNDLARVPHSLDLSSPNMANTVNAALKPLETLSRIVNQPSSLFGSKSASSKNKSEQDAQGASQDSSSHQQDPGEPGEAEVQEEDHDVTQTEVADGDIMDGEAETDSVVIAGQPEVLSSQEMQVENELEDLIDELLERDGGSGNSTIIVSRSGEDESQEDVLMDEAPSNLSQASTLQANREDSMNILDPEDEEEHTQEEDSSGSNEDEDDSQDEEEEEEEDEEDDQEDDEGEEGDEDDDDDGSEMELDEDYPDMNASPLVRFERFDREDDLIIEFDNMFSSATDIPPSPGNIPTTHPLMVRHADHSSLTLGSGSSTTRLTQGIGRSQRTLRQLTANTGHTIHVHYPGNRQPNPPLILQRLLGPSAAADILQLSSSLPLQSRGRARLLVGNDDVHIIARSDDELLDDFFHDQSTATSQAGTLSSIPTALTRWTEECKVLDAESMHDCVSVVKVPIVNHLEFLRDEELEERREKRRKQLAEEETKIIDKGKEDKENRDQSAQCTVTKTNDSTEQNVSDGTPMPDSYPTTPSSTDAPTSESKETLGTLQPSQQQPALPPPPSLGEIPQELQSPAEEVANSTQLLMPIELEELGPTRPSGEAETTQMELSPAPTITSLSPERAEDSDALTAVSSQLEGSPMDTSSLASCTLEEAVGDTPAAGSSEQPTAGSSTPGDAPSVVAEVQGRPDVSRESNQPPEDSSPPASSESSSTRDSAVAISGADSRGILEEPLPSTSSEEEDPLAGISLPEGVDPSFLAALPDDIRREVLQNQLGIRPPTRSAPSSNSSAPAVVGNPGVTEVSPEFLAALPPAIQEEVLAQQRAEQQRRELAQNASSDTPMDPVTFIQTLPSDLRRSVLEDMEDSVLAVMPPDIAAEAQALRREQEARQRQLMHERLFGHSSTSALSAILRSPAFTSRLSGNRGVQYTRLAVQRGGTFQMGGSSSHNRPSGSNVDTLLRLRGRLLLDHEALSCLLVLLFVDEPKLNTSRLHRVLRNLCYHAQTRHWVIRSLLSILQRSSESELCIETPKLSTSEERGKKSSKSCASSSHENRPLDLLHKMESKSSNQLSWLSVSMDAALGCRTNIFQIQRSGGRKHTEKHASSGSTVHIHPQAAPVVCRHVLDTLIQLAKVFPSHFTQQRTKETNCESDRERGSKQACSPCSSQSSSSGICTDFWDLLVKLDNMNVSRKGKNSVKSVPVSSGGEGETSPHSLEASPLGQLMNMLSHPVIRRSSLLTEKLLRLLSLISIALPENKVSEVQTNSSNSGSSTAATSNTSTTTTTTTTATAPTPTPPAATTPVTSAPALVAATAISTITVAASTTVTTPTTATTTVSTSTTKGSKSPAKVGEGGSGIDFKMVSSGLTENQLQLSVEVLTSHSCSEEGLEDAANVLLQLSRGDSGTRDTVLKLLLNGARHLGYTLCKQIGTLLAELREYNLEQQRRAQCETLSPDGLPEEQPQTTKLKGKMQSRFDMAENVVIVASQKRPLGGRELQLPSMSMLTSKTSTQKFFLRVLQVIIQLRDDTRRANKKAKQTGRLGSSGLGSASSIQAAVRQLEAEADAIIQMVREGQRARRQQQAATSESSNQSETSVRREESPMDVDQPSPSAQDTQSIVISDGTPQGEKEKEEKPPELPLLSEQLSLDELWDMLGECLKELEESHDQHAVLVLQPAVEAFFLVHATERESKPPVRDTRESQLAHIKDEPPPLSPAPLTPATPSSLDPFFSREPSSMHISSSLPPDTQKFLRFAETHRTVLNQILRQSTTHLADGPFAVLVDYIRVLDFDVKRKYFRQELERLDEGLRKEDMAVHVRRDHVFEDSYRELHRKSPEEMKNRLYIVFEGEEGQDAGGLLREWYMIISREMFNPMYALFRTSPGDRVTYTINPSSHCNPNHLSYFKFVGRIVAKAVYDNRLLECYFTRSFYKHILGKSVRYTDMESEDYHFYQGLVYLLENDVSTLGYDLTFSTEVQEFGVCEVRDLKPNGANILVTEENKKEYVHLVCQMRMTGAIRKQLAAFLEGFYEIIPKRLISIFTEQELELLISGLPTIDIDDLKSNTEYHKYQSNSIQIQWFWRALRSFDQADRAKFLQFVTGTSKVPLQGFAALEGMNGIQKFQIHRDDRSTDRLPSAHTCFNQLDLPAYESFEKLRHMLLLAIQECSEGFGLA
UniProt P11103: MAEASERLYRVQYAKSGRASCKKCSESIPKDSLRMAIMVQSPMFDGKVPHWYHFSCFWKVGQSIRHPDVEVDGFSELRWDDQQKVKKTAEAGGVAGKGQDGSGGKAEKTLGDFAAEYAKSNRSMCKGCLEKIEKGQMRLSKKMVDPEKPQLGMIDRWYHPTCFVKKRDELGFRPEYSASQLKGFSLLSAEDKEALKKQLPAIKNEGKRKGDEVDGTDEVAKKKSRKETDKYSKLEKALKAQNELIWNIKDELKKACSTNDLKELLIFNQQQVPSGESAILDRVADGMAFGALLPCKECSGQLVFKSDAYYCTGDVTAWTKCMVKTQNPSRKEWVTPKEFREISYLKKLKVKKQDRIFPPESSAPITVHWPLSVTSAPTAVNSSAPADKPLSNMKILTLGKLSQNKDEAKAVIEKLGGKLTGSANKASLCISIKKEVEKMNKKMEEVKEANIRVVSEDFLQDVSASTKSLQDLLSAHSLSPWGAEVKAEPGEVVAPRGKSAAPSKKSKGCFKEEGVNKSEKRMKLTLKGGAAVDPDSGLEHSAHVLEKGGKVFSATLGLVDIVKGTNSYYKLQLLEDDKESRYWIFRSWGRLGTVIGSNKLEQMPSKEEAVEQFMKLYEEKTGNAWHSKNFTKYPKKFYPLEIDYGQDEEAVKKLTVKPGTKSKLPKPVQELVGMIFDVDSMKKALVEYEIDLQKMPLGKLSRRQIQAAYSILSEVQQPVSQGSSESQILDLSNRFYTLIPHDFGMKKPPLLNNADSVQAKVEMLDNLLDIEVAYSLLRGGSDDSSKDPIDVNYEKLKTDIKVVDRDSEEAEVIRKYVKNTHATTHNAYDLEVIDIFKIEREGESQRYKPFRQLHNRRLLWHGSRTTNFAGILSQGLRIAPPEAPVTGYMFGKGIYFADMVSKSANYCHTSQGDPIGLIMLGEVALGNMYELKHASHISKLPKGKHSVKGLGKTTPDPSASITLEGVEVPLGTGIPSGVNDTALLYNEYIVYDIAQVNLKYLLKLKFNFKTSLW

binding: binds
Substance: PARP1 (from UniProt P11103 1-1013) (enzyme)

— doi:10.1101/2024.09.15.613155
